Test: IBD model mouse: body weight, ingested feed, water drunk
Format: in vivo
Details: IBD model mice, mean ± SEM
Description: 4 days before IL-10 deficient cell transplantation, total 40 SCID mice (7-week-old, were divided into the following 4 groups 1) to 4) (10 mice in each group) and acclimation to a control diet was simultaneously started. Immediately after cell transfer, the feed was changed to the test diet shown in Table 4, and free ingestion was allowed for 3 weeks. The safflower seed extract powder was the same as that in Example 8, and contained 50 wt % of γ-cyclodextrin. N-Feruloylserotonin (FS) was synthesized according to the method of Experimental Example 1. During the test diet ingestion period, the body weight, the amount of ingested feed and the amount of water drunk were measured 3 times a week to monitor the onset of the disease.
1) Normal group (normal SCID mice×control diet) 2) Control group (IL-10 deficient cell-transplanted SCID mice×control diet) 3) SSE group (IL-10 deficient cell-transplanted SCID mice×SSE diet*) 4) FS group (IL-10 deficient cell-transplanted SCID mice×FS diet**) *containing FS and p-coumaroyl serotonin (CS) at 0.10 and 0.13 wt %, respectively (based on aglycone) (total serotonin derivative content=[…]) **containing 0.4 wt % of FS aglycone

COc1cc(/C=C/C(=O)NCCc2c[nH]c3ccc(O)cc23)ccc1O [FS, N-feruloyl serotonin]
average amount of ingested feed during test period: 3.2 ± 0.1 g/day/mouse | average amount of water drunk during test period: 2.2 ± 0.2 g/day/mouse
